{"source": "patent US10440955B2", "about": "“Methods comprising a biocidal polyamine” (Curza Global, LLC, priority 2013, dated 2019)", "test_system": "L-929 cells (ATCC CCL-1)", "assay": "Minimal Essential Media (MEM) Elution cytotoxicity test", "assay_type": "cell-based", "conditions": "Table 9A", "protocol": "Summary: The Minimal Essential Media (MEM) Elution test was designed to determine the cytotoxicity of extractable substances. The test article was added to cell monolayers and incubated. The cell monolayers were examined and scored based on the degree of cellular destruction.\nAcceptance Criteria: The United States Pharmacopeia & National Formulary (USP <87>) states that the test article meets the requirements, or receives a passing score (Pass) if the reactivity grade is not greater than grade 2 or a mild reactivity.\nAcceptance criteria were based upon the negative and media controls receiving “0” reactivity grades and positive controls receiving a 3-4 reactivity grades (moderate to severe).\nThe cell monolayers were examined microscopically. The wells were scored as to the degree of discernable morphological cytotoxicity on a relative scale of 0 to 4:\nThe results from the three wells were averaged to give a final cytotoxicity score.\n[…] This initial concentration was then diluted 1: 2, 1:4, 1:8, and 1:16. Multiple well cell culture plates were seeded with a verified quantity of industry standard L-929 cells (ATCC CCL-1) and incubated until approximately 80% confluent. The test articles and control extracts were added to the cell monolayers in triplicate. The cells were incubated at 37±1° C. with 5±1% CO2 for 48±3 hours.", "data": [{"smiles": "CC(C)(C)CC(C)(C)c1ccc(OCCOCC[N+](C)(C)Cc2ccccc2)cc1", "note": "[benzethonium chloride, reference compound]", "values": [{"measurement": "Results Pass/Fail", "setting": "3.125 μg/mL", "value": "Fail (a numerical grade greater than 2 is considered a cytotoxic effect, or a failing score (Fail))"}, {"measurement": "Results Pass/Fail", "setting": "6.25 μg/mL", "value": "Fail (a numerical grade greater than 2 is considered a cytotoxic effect, or a failing score (Fail))"}, {"measurement": "Results Pass/Fail", "setting": "12.5 μg/mL", "value": "Fail (a numerical grade greater than 2 is considered a cytotoxic effect, or a failing score (Fail))"}, {"measurement": "Results Pass/Fail", "setting": "25 μg/mL", "value": "Fail (a numerical grade greater than 2 is considered a cytotoxic effect, or a failing score (Fail))"}, {"measurement": "Results Pass/Fail", "setting": "1.563 (unit not given)", "value": "Fail (a numerical grade greater than 2 is considered a cytotoxic effect, or a failing score (Fail))"}]}]}
